Reference: patent US20230183310A1, “Polypeptide Compounds and Use Thereof in the Prevention or Treatment of Diabetes or Diabetic Complications” (Shenzhen Turier Biotech Co., Ltd., priority 2020, published 2023)
Some entries share one result that the patent states for a list of compounds. At least one compound was matched to its structure with a doubt left.

Tested on: C57BL/6J mice
Assay: Oral glucose tolerance (OGTT), repeated glucose loads followed to 24 h after one s.c. dose
Assay type: in vivo
Conditions: 100 μg/kg subcutaneously
Procedure: Eight-week-old male C57BL/6J mice (Model Animal Research Center, Nanjing University) were randomly grouped according to similar blood glucose (assessed by blood samples obtained from the tail tip), with six mice in each group. […] The initial blood samples (fasted blood glucose levels) were obtained after about 4 h. Subsequently, an oral dose of glucose (2 g/kg) was administered and the animals were placed back in their holding cages (t=0). […] The oral dose of glucose was then repeated at 8 h of administration, 12 h of administration and […], and blood glucose changes were detected and followed until 24 hours. The data were processed using the software GraphPadPrism to make a line graph of blood glucose changes, and the area under the curve was calculated to obtain an AUC graph, and the results are shown in FIG. 1.

CCCCCCCCCCCCCCCC(=O)N[C@@H](CCC(=O)NCCCC[C@H](NC(=O)[C@H](C)NC(=O)[C@H](C)NC(=O)[C@H](CCC(N)=O)NC(=O)CNC(=O)[C@H](CCC(=O)O)NC(=O)[C@H](CC(C)C)NC(=O)[C@H](Cc1ccc(O)cc1)NC(=O)[C@H](CO)NC(=O)[C@H](CO)NC(=O)[C@@H](NC(=O)[C@H](CC(=O)O)NC(=O)[C@H](CO)NC(=O)[C@@H](NC(=O)[C@H](Cc1ccccc1)NC(=O)[C@@H](NC(=O)CNC(=O)[C@H](CCC(=O)O)NC(=O)[C@H](C)NC(=O)[C@@H](N)Cc1cnc[nH]1)[C@@H](C)O)[C@@H](C)O)C(C)C)C(=O)N[C@@H](CCC(=O)O)C(=O)N[C@@H](Cc1ccccc1)C(=O)N[C@H](C(=O)N[C@@H](C)C(=O)N[C@@H](Cc1c[nH]c2ccccc12)C(=O)N[C@@H](CC(C)C)C(=O)N[C@H](C(=O)N[C@@H](CCCNC(=N)N)C(=O)NCC(=O)N[C@@H](CCCNC(=N)N)C(=O)NCC(=O)O)C(C)C)[C@@H](C)CC)C(=O)O [liraglutide, Liraglutide]
AUC in the first OGTT curve period (0-120 min, compared to control PBS): significantly lower AUC (p<0.05) | AUC in the next three OGTT curve periods (4-22 h): AUC started to elevate
